# Assay results

From PubChem BioAssay record AID1080 (Emory University Molecular Libraries Screening Center, 2008).

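A cell line overexpressing EP4 prostanoid receptors, stimulated with a low (about EC15) PGE2 dose; cAMP read by HTRF FRET after a short room-temperature incubation. Compounds were tested at 20 µM final. A low (about EC15) PGE2 dose was present. Percent cAMP induction as a fraction of the 1 µM PGE2 response, averaged over three replicates; a higher value means more cAMP.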

Values are in %. Common to all entries: measured here: EP4 receptor counter-screen. Part of the compounds only, not a random draw; the main read-out is not listed here.

structure | condition | cAMP induction (%)
CCOC(=O)c1c(NC(=O)CN2CCN(C(=O)c3ccco3)CC2)sc2c1CCCC2 | percent of 1 uM PGE2 response; plus low (about EC15) PGE2 agonist | -10.41
O=C(Nc1ccccc1N1CCCC1)c1cc2ccccc2o1 | percent of 1 uM PGE2 response; plus low (about EC15) PGE2 agonist | -10.07
COc1nc(-c2ccccc2)nnc1-c1ccccc1 | percent of 1 uM PGE2 response; plus low (about EC15) PGE2 agonist | -3.19
CC1CCCC(C)N1C(=O)c1ccccc1Nc1ccc(SC(F)F)cc1 (stereo not drawn) | percent of 1 uM PGE2 response; plus low (about EC15) PGE2 agonist | -13.14
C=CCSc1nc2ccccc2c(=O)n1Cc1ccco1 | percent of 1 uM PGE2 response; plus low (about EC15) PGE2 agonist | 4.823
CC(/C=C1\SC(=S)N(C(C(=O)O)C(C)C)C1=O)=C\c1ccccc1 (stereo not drawn) | percent of 1 uM PGE2 response; plus low (about EC15) PGE2 agonist | -9.51
Cc1ccccc1Nc1cccc2nonc12 | percent of 1 uM PGE2 response; plus low (about EC15) PGE2 agonist | 1.803
COc1ccc(-n2c(-c3cccc(OC)c3)nc(=S)c3c2CCCC3)cc1 | percent of 1 uM PGE2 response; plus low (about EC15) PGE2 agonist | 67.16
O=C(Nc1ccccc1N1CCCCC1)c1ccc(F)cc1 | percent of 1 uM PGE2 response; plus low (about EC15) PGE2 agonist | 5.597
c1ccc(-c2csc3ncnc(N4CCc5ccccc5C4)c23)cc1 | percent of 1 uM PGE2 response; plus low (about EC15) PGE2 agonist | 5.64
Cc1ccc2cccc(NC(=O)c3ccc(Br)o3)c2n1 | percent of 1 uM PGE2 response; plus low (about EC15) PGE2 agonist | 7.577
COC(=O)c1c(NC(=O)CSc2nnc(-c3cccnc3)n2Cc2ccco2)sc(C)c1C | percent of 1 uM PGE2 response; plus low (about EC15) PGE2 agonist | -4.827
Cc1noc(C)c1CSc1nc2sc3c(c2c(=O)n1C)CCCC3 | percent of 1 uM PGE2 response; plus low (about EC15) PGE2 agonist | -7.72
Cc1cccnc1N(C(=O)Nc1ccccc1)C1=NCC(C)(C)S1 | percent of 1 uM PGE2 response; plus low (about EC15) PGE2 agonist | -15.15
CCOc1ccccc1Cn1c(=O)sc2ccccc21 | percent of 1 uM PGE2 response; plus low (about EC15) PGE2 agonist | -6.483
CC1CCN(c2ccccc2NC(=O)c2ccc(F)cc2)CC1 | percent of 1 uM PGE2 response; plus low (about EC15) PGE2 agonist | -4.027
S=c1[nH]nc(-c2ccco2)n1/N=C/c1ccc(Cl)cc1Cl | percent of 1 uM PGE2 response; plus low (about EC15) PGE2 agonist | 2.743
Cc1ccc(C(C)C)c(OCCn2c(=O)oc3ccccc32)c1 | percent of 1 uM PGE2 response; plus low (about EC15) PGE2 agonist | 11.22
C=CCc1cccc(C=Nc2cc(Br)ccc2O)c1O | percent of 1 uM PGE2 response; plus low (about EC15) PGE2 agonist | -4.07
Cc1cc(O)c(C=O)c2c1C(=O)Oc1c(C)c(O)c3c(c1O2)C(O)OC3=O (stereo not drawn) | percent of 1 uM PGE2 response; plus low (about EC15) PGE2 agonist | -2.427
CCC(C)N(C)C(=O)c1cc2ccccc2c(-c2ccccc2Cl)n1 (stereo not drawn) | percent of 1 uM PGE2 response; plus low (about EC15) PGE2 agonist | 0.7
CCN1C(c2ccccc2)C(C)C(=O)C(C)C1c1ccccc1 (stereo not drawn) | percent of 1 uM PGE2 response; plus low (about EC15) PGE2 agonist | -12.6
COCCNC(=O)C(c1ccc(F)cc1)N(CC1CCCO1)C(=O)CCC(=O)Nc1ccccn1 (stereo not drawn) | percent of 1 uM PGE2 response; plus low (about EC15) PGE2 agonist | 12.6
NC(=NCCC[C@H](N)C(=O)O)N[N+](=O)[O-] | percent of 1 uM PGE2 response; plus low (about EC15) PGE2 agonist | 8.757
Cc1ccc(-c2csc(Nc3ccc(C(=O)O)cc3)[n+]2Cc2ccccc2)cc1 | percent of 1 uM PGE2 response; plus low (about EC15) PGE2 agonist | 4.303
c1ccn(-c2ncnc3sc4c(c23)CCCC4)c1 | percent of 1 uM PGE2 response; plus low (about EC15) PGE2 agonist | 6.317
CCOc1ccc(-n2nc3c(=S)[nH]nc(C)c3c2C)cc1 | percent of 1 uM PGE2 response; plus low (about EC15) PGE2 agonist | 71.98
Cc1cc(C)cc(OC2CCCCC2NS(=O)(=O)c2ccccc2)c1 (stereo not drawn) | percent of 1 uM PGE2 response; plus low (about EC15) PGE2 agonist | -6.193
Cc1occc1-c1nnc(SCC(=O)Nc2ccccc2N2CCCCC2)n1C | percent of 1 uM PGE2 response; plus low (about EC15) PGE2 agonist | -11.99